This is one part of the list.
Key:
Assay in all cases: log2 fold change, soluble protein after heating vs DMSO (PISA); higher = thermal stabilisation; K562 cells, 10 uM, 30 min; active = over 0.2 and 3.5 SD of the protein, either way, in both replicates (recomputed)
saracatinib = compound: CN1CCN(CCOc2cc(OC3CCOCC3)c3c(Nc4c(Cl)ccc5c4OCO5)ncnc3c2)CC1 [saracatinib]
Summary of the method: (§1)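 Values are thermal stability changes relative to control samples and are taken from duplicates. They are stated as log2 fold changes. Before quantification by TMTpro 16plex LC-MS/MS with equalised channel sums, K562 cells at 2×10^6 cells/mL were treated with 10 μM compound for 30 min, heated in aliquots for 3 min across 48°C-58°C, pooled, extracted in PBS with 0.5% NP-40 at 4°C, and centrifuged at 21,000xg for 90 min to give the soluble supernatant.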

Amino acid sequences for entries named in this document (tags omitted). A change or cut given only in a name is not applied to a line headed by its entry.
UniProt Q92508: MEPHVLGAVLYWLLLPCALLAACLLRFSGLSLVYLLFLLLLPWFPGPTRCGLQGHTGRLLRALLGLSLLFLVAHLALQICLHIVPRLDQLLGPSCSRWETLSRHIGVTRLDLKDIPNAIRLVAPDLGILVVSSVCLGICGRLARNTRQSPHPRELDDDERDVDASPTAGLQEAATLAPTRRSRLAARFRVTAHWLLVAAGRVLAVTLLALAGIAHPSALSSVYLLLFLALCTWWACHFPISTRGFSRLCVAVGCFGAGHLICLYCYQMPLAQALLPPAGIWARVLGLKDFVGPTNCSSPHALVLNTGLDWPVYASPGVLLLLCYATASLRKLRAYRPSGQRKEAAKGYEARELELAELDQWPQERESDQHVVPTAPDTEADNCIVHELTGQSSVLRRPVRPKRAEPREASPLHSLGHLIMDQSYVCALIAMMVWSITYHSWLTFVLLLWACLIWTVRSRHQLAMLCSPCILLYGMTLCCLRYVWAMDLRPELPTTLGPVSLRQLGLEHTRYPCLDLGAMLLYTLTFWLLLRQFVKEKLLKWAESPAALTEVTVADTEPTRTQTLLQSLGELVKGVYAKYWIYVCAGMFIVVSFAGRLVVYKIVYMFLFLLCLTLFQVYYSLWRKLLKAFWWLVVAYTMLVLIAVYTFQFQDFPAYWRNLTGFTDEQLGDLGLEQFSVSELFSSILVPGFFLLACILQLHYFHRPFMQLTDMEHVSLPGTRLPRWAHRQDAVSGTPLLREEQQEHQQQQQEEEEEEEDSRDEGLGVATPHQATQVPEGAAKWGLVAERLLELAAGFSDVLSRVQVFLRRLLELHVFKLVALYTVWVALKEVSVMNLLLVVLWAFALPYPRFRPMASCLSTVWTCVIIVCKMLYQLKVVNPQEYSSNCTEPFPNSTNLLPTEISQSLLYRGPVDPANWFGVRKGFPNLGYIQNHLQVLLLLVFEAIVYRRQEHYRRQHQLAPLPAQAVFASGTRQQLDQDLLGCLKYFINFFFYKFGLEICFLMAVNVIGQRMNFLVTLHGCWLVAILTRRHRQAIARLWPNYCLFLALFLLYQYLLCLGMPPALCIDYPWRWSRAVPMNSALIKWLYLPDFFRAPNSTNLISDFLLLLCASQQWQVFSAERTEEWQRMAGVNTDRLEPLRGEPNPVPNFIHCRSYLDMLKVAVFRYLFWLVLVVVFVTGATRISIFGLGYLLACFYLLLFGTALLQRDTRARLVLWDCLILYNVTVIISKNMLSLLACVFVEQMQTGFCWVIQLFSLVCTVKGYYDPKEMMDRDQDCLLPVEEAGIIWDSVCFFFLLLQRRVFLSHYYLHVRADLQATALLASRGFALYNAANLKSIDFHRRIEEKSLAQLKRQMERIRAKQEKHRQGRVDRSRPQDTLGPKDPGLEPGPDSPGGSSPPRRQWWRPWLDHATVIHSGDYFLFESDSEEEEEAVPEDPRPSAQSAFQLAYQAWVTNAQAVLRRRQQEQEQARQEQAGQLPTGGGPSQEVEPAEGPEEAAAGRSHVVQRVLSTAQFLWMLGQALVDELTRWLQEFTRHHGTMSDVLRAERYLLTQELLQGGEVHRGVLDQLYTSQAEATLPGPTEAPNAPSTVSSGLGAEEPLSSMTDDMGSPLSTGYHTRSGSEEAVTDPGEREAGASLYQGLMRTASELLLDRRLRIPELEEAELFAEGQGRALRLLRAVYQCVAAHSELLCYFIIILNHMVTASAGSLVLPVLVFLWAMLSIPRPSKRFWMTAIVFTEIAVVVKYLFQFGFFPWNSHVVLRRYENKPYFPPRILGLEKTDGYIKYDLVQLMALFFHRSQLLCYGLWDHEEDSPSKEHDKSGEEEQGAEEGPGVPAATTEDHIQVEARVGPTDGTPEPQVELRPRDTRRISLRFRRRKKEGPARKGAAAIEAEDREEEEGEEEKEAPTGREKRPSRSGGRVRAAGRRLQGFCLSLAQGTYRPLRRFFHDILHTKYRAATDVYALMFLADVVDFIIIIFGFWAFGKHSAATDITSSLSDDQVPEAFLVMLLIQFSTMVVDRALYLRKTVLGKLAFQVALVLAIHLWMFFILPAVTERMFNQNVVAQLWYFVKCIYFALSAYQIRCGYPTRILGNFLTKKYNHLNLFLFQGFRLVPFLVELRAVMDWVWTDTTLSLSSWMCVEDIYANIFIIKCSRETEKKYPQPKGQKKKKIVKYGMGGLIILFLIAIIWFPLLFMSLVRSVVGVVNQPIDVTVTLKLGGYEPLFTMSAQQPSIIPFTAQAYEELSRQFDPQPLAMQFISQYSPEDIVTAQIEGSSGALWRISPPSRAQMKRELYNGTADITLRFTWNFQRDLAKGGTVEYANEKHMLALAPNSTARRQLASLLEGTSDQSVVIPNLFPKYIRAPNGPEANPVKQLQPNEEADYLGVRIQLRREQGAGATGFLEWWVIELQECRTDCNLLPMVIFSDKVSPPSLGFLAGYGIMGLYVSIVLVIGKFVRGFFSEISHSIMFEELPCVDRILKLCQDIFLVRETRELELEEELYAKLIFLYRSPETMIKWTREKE
UniProt Q9Y263: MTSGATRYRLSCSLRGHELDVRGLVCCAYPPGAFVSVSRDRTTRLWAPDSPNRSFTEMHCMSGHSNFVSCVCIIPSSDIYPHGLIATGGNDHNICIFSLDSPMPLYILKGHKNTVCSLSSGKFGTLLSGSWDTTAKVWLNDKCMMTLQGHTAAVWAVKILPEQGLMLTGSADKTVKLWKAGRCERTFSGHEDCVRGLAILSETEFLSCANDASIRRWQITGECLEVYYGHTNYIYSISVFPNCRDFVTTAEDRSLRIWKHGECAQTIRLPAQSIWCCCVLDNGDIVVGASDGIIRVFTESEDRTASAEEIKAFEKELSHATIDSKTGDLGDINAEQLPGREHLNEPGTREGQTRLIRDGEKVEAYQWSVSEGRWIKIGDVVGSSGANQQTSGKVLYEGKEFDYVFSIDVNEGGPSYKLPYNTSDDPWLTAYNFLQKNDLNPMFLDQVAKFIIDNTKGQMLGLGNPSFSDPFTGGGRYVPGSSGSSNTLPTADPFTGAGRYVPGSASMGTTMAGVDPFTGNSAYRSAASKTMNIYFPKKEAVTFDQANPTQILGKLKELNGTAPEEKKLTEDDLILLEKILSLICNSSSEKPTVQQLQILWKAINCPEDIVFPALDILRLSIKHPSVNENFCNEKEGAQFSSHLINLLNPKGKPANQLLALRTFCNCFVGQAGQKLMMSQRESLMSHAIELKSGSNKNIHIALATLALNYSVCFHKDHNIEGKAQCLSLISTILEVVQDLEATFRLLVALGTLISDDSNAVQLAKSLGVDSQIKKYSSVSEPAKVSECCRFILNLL
UniProt Q9BRB3: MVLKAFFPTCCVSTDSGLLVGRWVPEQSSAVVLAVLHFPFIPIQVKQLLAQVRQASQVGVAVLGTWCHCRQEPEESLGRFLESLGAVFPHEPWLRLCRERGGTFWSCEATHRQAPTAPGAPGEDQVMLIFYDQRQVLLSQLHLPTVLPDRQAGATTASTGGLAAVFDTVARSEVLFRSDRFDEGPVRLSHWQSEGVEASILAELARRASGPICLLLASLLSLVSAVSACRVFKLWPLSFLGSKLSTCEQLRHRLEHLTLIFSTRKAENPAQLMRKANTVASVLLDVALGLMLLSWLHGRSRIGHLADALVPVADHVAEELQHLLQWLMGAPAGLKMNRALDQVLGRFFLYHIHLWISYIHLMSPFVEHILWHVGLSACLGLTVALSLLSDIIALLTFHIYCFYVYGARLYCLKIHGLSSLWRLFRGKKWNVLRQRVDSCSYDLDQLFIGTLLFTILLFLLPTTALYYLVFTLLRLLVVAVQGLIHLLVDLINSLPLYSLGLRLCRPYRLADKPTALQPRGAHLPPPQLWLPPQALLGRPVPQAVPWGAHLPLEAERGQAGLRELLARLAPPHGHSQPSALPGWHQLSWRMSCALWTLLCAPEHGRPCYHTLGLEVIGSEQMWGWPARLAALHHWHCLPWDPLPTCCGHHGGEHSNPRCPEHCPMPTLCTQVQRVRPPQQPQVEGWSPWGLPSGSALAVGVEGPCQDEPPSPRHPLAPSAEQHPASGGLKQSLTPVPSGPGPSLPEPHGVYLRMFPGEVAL
UniProt P28328: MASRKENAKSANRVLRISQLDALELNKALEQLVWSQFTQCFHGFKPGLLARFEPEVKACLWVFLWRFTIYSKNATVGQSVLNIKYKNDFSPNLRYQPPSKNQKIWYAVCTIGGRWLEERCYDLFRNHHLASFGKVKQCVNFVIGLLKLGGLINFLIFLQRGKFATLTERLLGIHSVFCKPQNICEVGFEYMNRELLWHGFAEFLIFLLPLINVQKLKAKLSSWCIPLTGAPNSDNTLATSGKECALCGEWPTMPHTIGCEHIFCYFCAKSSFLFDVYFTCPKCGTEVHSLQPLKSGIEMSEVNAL
UniProt P12273: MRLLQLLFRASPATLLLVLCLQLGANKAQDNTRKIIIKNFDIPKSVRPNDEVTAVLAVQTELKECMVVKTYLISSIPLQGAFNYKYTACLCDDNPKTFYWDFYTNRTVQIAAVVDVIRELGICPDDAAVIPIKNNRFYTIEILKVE
UniProt Q13526, whole entry, looked up: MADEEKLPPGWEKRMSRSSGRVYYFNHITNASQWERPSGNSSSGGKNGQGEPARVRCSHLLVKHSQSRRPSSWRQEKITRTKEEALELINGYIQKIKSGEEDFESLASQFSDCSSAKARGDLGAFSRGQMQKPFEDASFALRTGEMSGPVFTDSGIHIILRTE
UniProt Q92643: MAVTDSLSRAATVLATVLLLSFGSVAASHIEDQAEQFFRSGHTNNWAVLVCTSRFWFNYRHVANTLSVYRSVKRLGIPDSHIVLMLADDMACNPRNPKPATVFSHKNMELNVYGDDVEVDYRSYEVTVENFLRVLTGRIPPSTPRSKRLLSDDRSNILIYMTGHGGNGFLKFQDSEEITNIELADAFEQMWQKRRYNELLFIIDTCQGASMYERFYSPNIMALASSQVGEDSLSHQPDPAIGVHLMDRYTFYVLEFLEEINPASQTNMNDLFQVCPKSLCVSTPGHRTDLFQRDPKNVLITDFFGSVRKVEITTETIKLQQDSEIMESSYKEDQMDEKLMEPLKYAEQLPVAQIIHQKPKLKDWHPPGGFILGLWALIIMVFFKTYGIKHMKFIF
UniProt O15173: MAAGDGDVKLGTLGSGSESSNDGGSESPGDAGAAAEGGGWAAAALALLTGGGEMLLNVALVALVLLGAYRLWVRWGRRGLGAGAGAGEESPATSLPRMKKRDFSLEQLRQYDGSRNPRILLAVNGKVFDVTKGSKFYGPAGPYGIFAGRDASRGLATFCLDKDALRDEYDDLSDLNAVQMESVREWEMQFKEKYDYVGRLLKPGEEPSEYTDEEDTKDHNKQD
UniProt P17858: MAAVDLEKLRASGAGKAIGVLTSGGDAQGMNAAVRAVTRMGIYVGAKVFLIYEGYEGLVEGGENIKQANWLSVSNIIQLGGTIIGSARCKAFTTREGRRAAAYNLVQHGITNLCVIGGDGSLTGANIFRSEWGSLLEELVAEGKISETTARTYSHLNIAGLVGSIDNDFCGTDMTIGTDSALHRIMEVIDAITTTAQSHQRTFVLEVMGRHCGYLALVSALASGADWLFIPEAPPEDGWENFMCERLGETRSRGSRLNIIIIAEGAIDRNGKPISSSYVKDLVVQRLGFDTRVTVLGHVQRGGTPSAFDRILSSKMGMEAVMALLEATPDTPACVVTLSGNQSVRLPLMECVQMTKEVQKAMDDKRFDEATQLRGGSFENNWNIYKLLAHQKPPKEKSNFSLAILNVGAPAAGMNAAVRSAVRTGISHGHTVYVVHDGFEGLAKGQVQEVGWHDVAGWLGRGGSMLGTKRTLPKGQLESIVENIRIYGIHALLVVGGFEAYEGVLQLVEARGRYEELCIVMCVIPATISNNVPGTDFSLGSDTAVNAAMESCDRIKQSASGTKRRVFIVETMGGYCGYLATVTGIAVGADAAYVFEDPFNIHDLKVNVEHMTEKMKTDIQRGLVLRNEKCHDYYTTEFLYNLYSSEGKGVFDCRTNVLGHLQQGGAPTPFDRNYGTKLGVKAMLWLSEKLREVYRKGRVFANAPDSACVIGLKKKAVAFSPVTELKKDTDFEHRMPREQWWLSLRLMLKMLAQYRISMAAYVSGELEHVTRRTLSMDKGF
UniProt P52209: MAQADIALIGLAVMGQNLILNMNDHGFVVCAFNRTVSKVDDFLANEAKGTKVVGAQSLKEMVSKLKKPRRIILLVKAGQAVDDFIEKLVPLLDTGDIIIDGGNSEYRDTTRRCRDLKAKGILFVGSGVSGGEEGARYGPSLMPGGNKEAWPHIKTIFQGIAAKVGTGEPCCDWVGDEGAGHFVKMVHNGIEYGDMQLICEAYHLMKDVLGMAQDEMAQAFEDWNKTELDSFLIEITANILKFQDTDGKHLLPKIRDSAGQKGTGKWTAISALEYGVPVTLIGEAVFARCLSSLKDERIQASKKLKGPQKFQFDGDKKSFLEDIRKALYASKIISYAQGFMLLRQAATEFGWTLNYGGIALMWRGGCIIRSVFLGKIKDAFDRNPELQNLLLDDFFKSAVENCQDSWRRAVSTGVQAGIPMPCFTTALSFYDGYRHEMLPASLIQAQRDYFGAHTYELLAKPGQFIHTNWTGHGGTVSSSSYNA

sotrastaurin = compound: CN1CCN(c2nc(C3=C(c4c[nH]c5ccccc45)C(=O)NC3=O)c3ccccc3n2)CC1 [sotrastaurin]
Summary of the method: as §1

alvocidib = compound: CN1CC[C@H](c2c(O)cc(O)c3c(=O)cc(-c4ccccc4Cl)oc23)[C@H](O)C1 [alvocidib]
Summary of the method: as §1

Tubastatin A = compound: CN1CCc2c(c3ccccc3n2Cc2ccc(C(=O)NO)cc2)C1 [Tubastatin A]
Summary of the method: as §1

[1] = compound: CNC(=O)C1=CC=CC=C1NC2=NC(=NC=C2Cl)NC3=C(C=C(C=C3)N4CCOCC4)OC
Summary of the method: as §1

defactinib = compound: CNC(=O)c1ccc(Nc2ncc(C(F)(F)F)c(NCc3nccnc3N(C)S(C)(=O)=O)n2)cc1 [defactinib]
Summary of the method: as §1

rucaparib = compound: CNCc1ccc(-c2[nH]c3cc(F)cc4c3c2CCNC4=O)cc1 [rucaparib]
Summary of the method: as §1

[2] = compound: CNc1nc(-c2ccc3c(N)n[nH]c3c2)cc(N2C[C@@H](C(=O)NC3CCCCC3)CC[C@H]2C)n1
Summary of the method: as §1

encorafenib = compound: COC(=O)N[C@@H](C)CNc1nccc(-c2cn(C(C)C)nc2-c2cc(Cl)cc(NS(C)(=O)=O)c2F)n1 [encorafenib]
Summary of the method: as §1

[3] = compound: COC(=O)[C@H](CCSC)NC(=O)C1=C(C=C(C=C1)NC[C@H](CS)N)C2=CC=CC=C2
Summary of the method: as §1

[4] = compound: COC1=CC=C(C=C1)CN2C=CC3=C2C=C(C=C3)C(=O)NO
Summary of the method: as §1

filanesib = compound: CON(C)C(=O)N1N=C(c2cc(F)ccc2F)S[C@@]1(CCCN)c1ccccc1 [filanesib]
Summary of the method: as §1

zotarolimus = compound: CO[C@H]1C[C@@H]2CC[C@@H](C)[C@@](O)(O2)C(=O)C(=O)N2CCCC[C@H]2C(=O)O[C@H]([C@H](C)C[C@@H]2CC[C@H](n3cnnn3)[C@H](OC)C2)CC(=O)[C@H](C)/C=C(\C)[C@@H](O)[C@@H](OC)C(=O)[C@H](C)C[C@H](C)/C=C/C=C/C=C/1C [zotarolimus]
Summary of the method: as §1

idasanutlin = compound: COc1cc(C(=O)O)ccc1NC(=O)[C@@H]1N[C@@H](CC(C)(C)C)[C@](C#N)(c2ccc(Cl)cc2F)[C@H]1c1cccc(Cl)c1F [idasanutlin]
Summary of the method: as §1

alisertib = compound: COc1cc(Nc2ncc3c(n2)-c2ccc(Cl)cc2C(c2c(F)cccc2OC)=NC3)ccc1C(=O)O [alisertib]
Summary of the method: as §1

[5] = compound: COc1cc2nc(-c3cc(F)ccc3O)nc(N[C@@H]3CNC[C@H]3C(C)(C)O)c2cc1OC
Summary of the method: as §1

gefitinib = compound: COc1cc2ncnc(Nc3ccc(F)c(Cl)c3)c2cc1OCCCN1CCOCC1 [gefitinib]
Summary of the method: as §1

[6] = compound: COc1cccc2cc(-c3nc([C@H]4CC[C@H](C(=O)O)CC4)n4ncnc(N)c34)[nH]c12
Summary of the method: as §1

lapatinib = compound: CS(=O)(=O)CCNCc1ccc(-c2ccc3ncnc(Nc4ccc(OCc5cccc(F)c5)c(Cl)c4)c3c2)o1 [lapatinib]
Summary of the method: as §1

pictilisib = compound: CS(=O)(=O)N1CCN(Cc2cc3nc(-c4cccc5[nH]ncc45)nc(N4CCOCC4)c3s2)CC1 [pictilisib]
Summary of the method: as §1

Measured: log2 fold change

PIEZO1 (UniProt Q92508)
inactive: saracatinib 0.042 | sotrastaurin 0.102 | alvocidib 0.002 | Tubastatin A 0.02 | [1] 0.022 | defactinib 0.009 | rucaparib 0.039 | [2] -0.003 | encorafenib -0.067 | [3] 0.007 | [4] 0.021 | filanesib 0.066 | zotarolimus -0.048 | idasanutlin 0.031 | alisertib -0.051 | [5] 0.006 | gefitinib 0.026 | [6] 0.057 | lapatinib 0.043 | pictilisib 0.114

PLD1 (UniProt Q13393)
inactive: saracatinib -0.195 | sotrastaurin -0.194 | alvocidib 0.087 | Tubastatin A 0.122 | [1] 0.006 | defactinib 0.071 | rucaparib 0.125 | [2] 0.06 | encorafenib 0.089 | [3] -0.09 | [4] 0.003 | filanesib 0.11 | zotarolimus 0.04 | idasanutlin 0.064 | alisertib -0.081 | [5] -0.244 | gefitinib -0.036 | [6] -0.131 | lapatinib 0.161 | pictilisib -0.045

PHACTR2 isoform 4 (UniProt O75167)
inactive: saracatinib 0.018 | sotrastaurin 0.201 | alvocidib -0.027 | Tubastatin A 0.02 | [1] -0.053 | defactinib -0.048 | rucaparib -0.015 | [2] -0.002 | encorafenib 0.012 | [3] -0.166 | [4] 0 | filanesib 0.003 | zotarolimus -0.044 | idasanutlin 0.054 | alisertib -0.041 | [5] -0.081 | gefitinib 0.223 | [6] 0.085 | lapatinib -0.043 | pictilisib 0.053

PLAA (UniProt Q9Y263)
inactive: saracatinib 0.009 | sotrastaurin -0.061 | alvocidib -0.084 | Tubastatin A 0.12 | [1] -0.014 | defactinib -0.059 | rucaparib -0.017 | [2] 0.039 | encorafenib 0.038 | [3] 0 | [4] 0.052 | filanesib 0 | zotarolimus 0.044 | idasanutlin -0.063 | alisertib 0.018 | [5] 0.031 | gefitinib 0.007 | [6] 0.001 | lapatinib -0.008 | pictilisib -0.001

PGAM5 (UniProt Q96HS1)
inactive: saracatinib -0.033 | sotrastaurin 0.042 | alvocidib 0.207 | Tubastatin A -0.011 | [1] 0.056 | defactinib 0.184 | rucaparib 0.273 | [2] 0.027 | encorafenib 0.052 | [3] 0.005 | [4] 0 | filanesib 0.206 | zotarolimus 0.018 | idasanutlin 0.039 | alisertib -0.12 | [5] 0.096 | gefitinib -0.006 | [6] -0.086 | lapatinib 0 | pictilisib -0.037

PIGX isoform 2 (UniProt Q8TBF5)
inactive: saracatinib 0.118 | sotrastaurin -0.045 | alvocidib -0.119 | Tubastatin A -0.07 | [1] 0 | defactinib 0.08 | rucaparib 0.051 | [2] -0.083 | encorafenib 0.104 | [3] -0.009 | filanesib -0.152 | zotarolimus 0.115 | alisertib -0.181 | [6] 0.074 | pictilisib -0.036

Quoted from the results shown (four entries):
PIEZO1 (UniProt Q92508)
inactive: saracatinib 0.042 | sotrastaurin 0.102 | alvocidib 0.002 | Tubastatin A 0.02 | [1] 0.022 | defactinib 0.009 | rucaparib 0.039 | [2] -0.003 | encorafenib -0.067 | [3] 0.007 | [4] 0.021 | filanesib 0.066 | zotarolimus -0.048 | idasanutlin 0.031 | alisertib -0.051 | [5] 0.006 | gefitinib 0.026 | [6] 0.057 | lapatinib 0.043 | pictilisib 0.114

PLD1 (UniProt Q13393)
inactive: saracatinib -0.195 | sotrastaurin -0.194 | alvocidib 0.087 | Tubastatin A 0.122 | [1] 0.006 | defactinib 0.071 | rucaparib 0.125 | [2] 0.06 | encorafenib 0.089 | [3] -0.09 | [4] 0.003 | filanesib 0.11 | zotarolimus 0.04 | idasanutlin 0.064 | alisertib -0.081 | [5] -0.244 | gefitinib -0.036 | [6] -0.131 | lapatinib 0.161 | pictilisib -0.045

PHACTR2 isoform 4 (UniProt O75167)
inactive: saracatinib 0.018 | sotrastaurin 0.201 | alvocidib -0.027 | Tubastatin A 0.02 | [1] -0.053 | defactinib -0.048 | rucaparib -0.015 | [2] -0.002 | encorafenib 0.012 | [3] -0.166 | [4] 0 | filanesib 0.003 | zotarolimus -0.044 | idasanutlin 0.054 | alisertib -0.041 | [5] -0.081 | gefitinib 0.223 | [6] 0.085 | lapatinib -0.043 | pictilisib 0.053

PLAA (UniProt Q9Y263)
inactive: saracatinib 0.009 | sotrastaurin -0.061 | alvocidib -0.084 | Tubastatin A 0.12 | [1] -0.014 | defactinib -0.059 | rucaparib -0.017 | [2] 0.039 | encorafenib 0.038 | [3] 0 | [4] 0.052 | filanesib 0 | zotarolimus 0.044 | idasanutlin -0.063 | alisertib 0.018 | [5] 0.031 | gefitinib 0.007 | [6] 0.001 | lapatinib -0.008 | pictilisib -0.001

Following part

PIGQ (UniProt Q9BRB3)
inactive: saracatinib -0.084 | sotrastaurin 0.087 | alvocidib -0.146 | Tubastatin A -0.274 | [1] -0.07 | defactinib -0.108 | rucaparib -0.165 | [2] 0.062 | encorafenib -0.106 | [3] -0.161 | [4] 0.033 | filanesib -0.454 | zotarolimus 0.078 | idasanutlin -0.075 | alisertib -0.216 | gefitinib 0.025 | [6] -0.102 | pictilisib 0.089

PEX2 (UniProt P28328)
inactive: saracatinib 0.072 | sotrastaurin 0.051 | alvocidib 0.007 | Tubastatin A -0.008 | [1] -0.021 | defactinib -0.043 | rucaparib -0.069 | [2] -0.015 | encorafenib -0.074 | [3] -0.041 | [4] 0.02 | filanesib 0 | zotarolimus 0.049 | idasanutlin -0.174 | alisertib 0.063 | [5] 0.019 | gefitinib 0.005 | [6] 0.045 | lapatinib 0.009 | pictilisib -0.093

PIP (UniProt P12273)
inactive: saracatinib -0.451 | sotrastaurin -0.118 | alvocidib -0.237 | Tubastatin A 0.066 | [1] 0.162 | defactinib -0.042 | rucaparib -0.186 | [2] 0.053 | encorafenib -0.357 | [3] 0.218 | [4] 0.385 | filanesib 0.171 | zotarolimus -0.071 | idasanutlin 0.093 | alisertib -0.139 | [5] 0.206 | gefitinib 0.526 | [6] -0.042 | lapatinib -0.034 | pictilisib -0.152

PIN1 (UniProt Q13526)
inactive: saracatinib 0.041 | sotrastaurin -0.012 | alvocidib -0.115 | Tubastatin A 0.012 | [1] 0.027 | defactinib -0.126 | rucaparib 0.054 | [2] -0.04 | encorafenib -0.02 | [3] -0.066 | [4] 0.018 | filanesib -0.016 | zotarolimus -0.004 | idasanutlin -0.028 | alisertib 0.004 | [5] 0.071 | gefitinib 0.044 | [6] -0.012 | lapatinib -0.051 | pictilisib 0.001

PIGK (UniProt Q92643)
inactive: saracatinib -0.006 | sotrastaurin 0.004 | alvocidib 0.025 | Tubastatin A 0.044 | [1] 0.015 | defactinib 0.017 | rucaparib 0.065 | [2] 0.013 | encorafenib 0.063 | [3] 0.005 | [4] 0.049 | filanesib 0.012 | zotarolimus -0.03 | idasanutlin 0.065 | alisertib 0.077 | [5] -0.025 | gefitinib -0.038 | [6] -0.065 | lapatinib 0.055 | pictilisib 0.04

PGRMC2 isoform 2 (UniProt O15173)
inactive: saracatinib 0.026 | sotrastaurin -0.005 | alvocidib -0.03 | Tubastatin A -0.003 | [1] -0.018 | defactinib -0.036 | rucaparib 0.039 | [2] 0.005 | encorafenib -0.033 | [3] -0.035 | [4] 0.01 | filanesib -0.09 | zotarolimus 0.035 | idasanutlin -0.016 | alisertib -0.088 | [5] 0 | gefitinib 0.017 | [6] 0.005 | lapatinib -0.019 | pictilisib -0.011

PIGBOS1, A0A0B4J2F0
inactive: saracatinib 0 | sotrastaurin 0.08 | alvocidib -0.018 | Tubastatin A 0.055 | [1] 0.039 | defactinib 0.012 | rucaparib -0.005 | [2] -0.02 | encorafenib -0.125 | [3] -0.08 | filanesib 0.056 | zotarolimus 0.096 | idasanutlin 0.158 | alisertib -0.028 | [5] -0.021 | gefitinib 0.051 | [6] 0.066 | lapatinib -0.009 | pictilisib -0.083

PFKL isoform 2 (UniProt P17858)
inactive: saracatinib -0.019 | sotrastaurin 0.071 | alvocidib -0.002 | Tubastatin A -0.028 | [1] -0.043 | defactinib -0.032 | rucaparib -0.015 | [2] 0 | encorafenib 0.002 | [3] -0.016 | [4] 0.019 | filanesib 0.015 | zotarolimus -0.006 | idasanutlin -0.022 | alisertib -0.008 | [5] 0.037 | gefitinib -0.002 | [6] 0.073 | lapatinib -0.02 | pictilisib 0.015

PGD (UniProt P52209)
inactive: saracatinib 0.024 | sotrastaurin 0.009 | alvocidib -0.055 | Tubastatin A -0.015 | [1] -0.024 | defactinib 0.013 | rucaparib -0.066 | [2] -0.008 | encorafenib -0.015 | [3] 0.012 | [4] 0.004 | filanesib -0.106 | zotarolimus 0.025 | idasanutlin -0.051 | alisertib -0.025 | [5] -0.065 | gefitinib 0.014 | [6] 0.005 | lapatinib 0.063 | pictilisib 0.041
